Source: patent publication US20040259770A1, “Method for determining leukocyte activation” (Rush University Medical Center, priority 2003, published 2004)

Test system: lactoferrin receptors on eosinophils
Assay: Binding of 125I-labeled lactoferrin by eosinophils, Scatchard analysis
Set-up: species or system human
Conditions: three experiments
Protocol: Lactoferrin (100 micrograms) was radioiodinated using IODO-GEN iodination reagent (Pierce; Rockford, Ill.) according to the procedure supplied by the manufacturer. The lactoferrin was incubated with 400 micro Curies Na^125I (PerkinElmer Life Sciences; Boston, Mass.) for 3 min, and the ^125I-labeled lactoferrin was separated from free Na^125I by chromatography through a 5-ml D-Salt dextran desalting column (Pierce) using PBS as the elution buffer. Protein concentration of the ^125I-labeled lactoferrin was measured by the BCA assay (Pierce). Specific activity of the ^125I-labeled lactoferrin was 34,800 cpm/pmole. […] Binding of ^125I-labeled lactoferrin by eosinophils was determined using a modification of previously described protocols for eosinophils. Motegi et al. J. Immunol. […] In some experiments as indicated, binding was measured in the presence of excess unlabeled transferrin. […] The supernatant was removed by careful aspiration, and after quick-freezing on dry ice the tip of the tube containing the cell pellet was excised and the radioactivity was measured by gamma counting (Beckman Coulter Gamma 5500B). Specific binding was determined as the difference between total binding and binding in the presence of the excess unlabeled lactoferrin. Binding constants were determined by Scatchard analysis (Scatchard, G., Ann. N.Y. Acad. Sci. 51:660 (1949)).

B1: ^125I-labeled lactoferrin: lactoferrin radioiodinated with IODO-GEN reagent, 34,800 cpm/pmole (protein, UniProt P02788 20-710, looked up)
Lactotransferrin: GRRRSVQWCAVSQPEATKCFQWQRNMRKVRGPPVSCIKRDSPIQCIQAIAENRADAVTLDGGFIYEAGLAPYKLRPVAAEVYGTERQPRTHYYAVAVVKKGGSFQLNELQGLKSCHTGLRRTAGWNVPIGTLRPFLNWTGPPEPIEAAVARFFSASCVPGADKGQFPNLCRLCAGTGENKCAFSSQEPYFSYSGAFKCLRDGAGDVAFIRESTVFEDLSDEAERDEYELLCPDNTRKPVDKFKDCHLARVPSHAVVARSVNGKEDAIWNLLRQAQEKFGKDKSPKFQLFGSPSGQKDLLFKDSAIGFSRVPPRIDSGLYLGSGYFTAIQNLRKSEEEVAARRARVVWCAVGEQELRKCNQWSGLSEGSVTCSSASTTEDCIALVLKGEADAMSLDGGYVYTAGKCGLVPVLAENYKSQQSSDPDPNCVDRPVEGYLAVAVVRRSDTSLTWNSVKGKKSCHTAVDRTAGWNIPMGLLFNQTGSCKFDEYFSQSCAPGSDPRSNLCALCIGDEQGENKCVPNSNERYYGYTGAFRCLAENAGDVAFVKDVTVLQNTDGNNNEAWAKDLKLADFALLCLDGKRKPVTEARSCHLAMAPNHAVVSRMDKVERLKQVLLHQQAKFGRNGSDCPDKFCLFQSETKNLLFNDNTECLARLHGKTTYEKYLGPQYVAGITNLKKCSTSPLLEACEFLRK
modifications: 125I label
notes: lactoferrin radioiodinated with IODO-GEN reagent, 34,800 cpm/pmole
  receptor population, first class of receptors: approximately 78,000+/−13,000 per eosinophil
  receptor population, second class of receptors: ≤ 620,000 molecules per eosinophil
